Measurements reported in paper PMC6759600.
No constants are given. Whether binding was seen depends on the method and setting. Binding seen in cells or lysates may run through a third protein. Some entries that bind do so weakly or less than the wild type. Tags and fused reporters may be left off the sequences shown.

Sequences of proteins named here, by UniProt entry; tags and fusion partners are left off. A change or cut given only in a name is not applied to a line headed by its entry. Residues count along the entry.
UniProt Q96SW2: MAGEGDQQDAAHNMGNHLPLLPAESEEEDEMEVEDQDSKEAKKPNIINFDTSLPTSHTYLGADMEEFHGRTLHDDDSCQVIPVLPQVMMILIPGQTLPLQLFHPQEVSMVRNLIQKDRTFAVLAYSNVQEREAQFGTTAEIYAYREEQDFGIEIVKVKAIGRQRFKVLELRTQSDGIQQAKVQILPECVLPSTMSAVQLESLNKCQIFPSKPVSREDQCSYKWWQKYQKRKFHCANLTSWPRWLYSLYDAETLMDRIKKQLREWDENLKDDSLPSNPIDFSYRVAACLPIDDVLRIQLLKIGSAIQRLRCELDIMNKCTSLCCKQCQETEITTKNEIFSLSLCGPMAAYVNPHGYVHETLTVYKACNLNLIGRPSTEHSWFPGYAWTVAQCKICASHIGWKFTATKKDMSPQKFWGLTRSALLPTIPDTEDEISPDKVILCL
Myc-CRBN 1-261: residues 1-261 of Q96SW2
Myc-CRBN 1-186: residues 1-186 of Q96SW2

Legend:
Assay in all cases: co-IP; HEK293T cells co-transfected, harvested 38 h after transfection; IP with anti-Myc antibody, immunoblot with anti-Flag or anti-Myc
Myc-CRBN 1-186 = Myc-CRBN 1-186 (UniProt Q96SW2)
Myc-CRBN 1-261 = Myc-CRBN 1-261 (UniProt Q96SW2)
Myc-CRBN wild type = Myc-CRBN wild type (UniProt Q96SW2)

- binding (Myc-CRBN 1-186): binds
- binding (Myc-CRBN 1-261): binds
- binding (Myc-CRBN wild type): binds
B1: Flag-ECSIT wild type (protein, UniProt Q9BQ95 49-431)
chain: SSEQSLVPSPPEPRQRPTKALVPFEDLFGQAPGGERDKASFLQTVQKFAEHSVRKRGHIDFIYLALRKMREYGVERDLAVYNQLLNIFPKEVFRPRNIIQRIFVHYPRQQECGIAVLEQMENHGVMPNKETEFLLIQIFGRKSYPMLKLVRLKLWFPRFMNVNPFPVPRDLPQDPVELAMFGLRHMEPDLSARVTIYQVPLPKDSTGAADPPQPHIVGIQSPDQQAALARHNPARPVFVEGPFSLWLRNKCVYYHILRADLLPPEEREVEETPEEWNLYYPMQLDLEYVRSGWDNYEFDINEVEEGPVFAMCMAGAHDQATMAKWIQGLQETNPTLAQIPVVFRLAGSTRELQTSSAGLEEPPLPEDHQEEDDNLQRQQQGQS
